From PMC12224001
These are yes or no findings as the source states them, for the method shown. In cells and extracts the contact can be indirect. Some binding calls cover weakened binding; strength is not graded here. For some of these results: Where a sequence is shown, tags or fusion partners need not be part of it. Each block holds one molecule with its values, some of them ahead of it.

By UniProt entry, the sequences of proteins in these tests, tags left out. Residues count along the entry.
UniProt Q9BXM7, residues 78-581: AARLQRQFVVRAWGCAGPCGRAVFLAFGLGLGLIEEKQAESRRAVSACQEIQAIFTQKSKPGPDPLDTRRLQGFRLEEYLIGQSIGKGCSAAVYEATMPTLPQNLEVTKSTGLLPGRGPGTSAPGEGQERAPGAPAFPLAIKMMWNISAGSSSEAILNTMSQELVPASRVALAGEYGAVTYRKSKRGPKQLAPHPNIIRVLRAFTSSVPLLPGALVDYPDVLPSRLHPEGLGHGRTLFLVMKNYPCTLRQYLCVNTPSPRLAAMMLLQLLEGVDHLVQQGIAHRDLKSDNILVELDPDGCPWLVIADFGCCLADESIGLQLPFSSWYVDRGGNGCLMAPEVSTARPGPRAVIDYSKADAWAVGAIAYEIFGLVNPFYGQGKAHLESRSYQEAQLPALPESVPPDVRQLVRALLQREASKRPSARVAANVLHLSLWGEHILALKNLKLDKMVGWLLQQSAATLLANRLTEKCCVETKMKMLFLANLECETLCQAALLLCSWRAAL

Tests used:
OGT-FLAG = molecular target: T1, OGT-FLAG (UniProt O15294); assay: co-IP; HEK293T cells transfected with OGT-FLAG and/or PINK1-MYC for 48 h, lysed with IP lysis buffer; MYC IP or FLAG IP on myc/flag magnetic beads for 4 h; western blotting
T1 sequence: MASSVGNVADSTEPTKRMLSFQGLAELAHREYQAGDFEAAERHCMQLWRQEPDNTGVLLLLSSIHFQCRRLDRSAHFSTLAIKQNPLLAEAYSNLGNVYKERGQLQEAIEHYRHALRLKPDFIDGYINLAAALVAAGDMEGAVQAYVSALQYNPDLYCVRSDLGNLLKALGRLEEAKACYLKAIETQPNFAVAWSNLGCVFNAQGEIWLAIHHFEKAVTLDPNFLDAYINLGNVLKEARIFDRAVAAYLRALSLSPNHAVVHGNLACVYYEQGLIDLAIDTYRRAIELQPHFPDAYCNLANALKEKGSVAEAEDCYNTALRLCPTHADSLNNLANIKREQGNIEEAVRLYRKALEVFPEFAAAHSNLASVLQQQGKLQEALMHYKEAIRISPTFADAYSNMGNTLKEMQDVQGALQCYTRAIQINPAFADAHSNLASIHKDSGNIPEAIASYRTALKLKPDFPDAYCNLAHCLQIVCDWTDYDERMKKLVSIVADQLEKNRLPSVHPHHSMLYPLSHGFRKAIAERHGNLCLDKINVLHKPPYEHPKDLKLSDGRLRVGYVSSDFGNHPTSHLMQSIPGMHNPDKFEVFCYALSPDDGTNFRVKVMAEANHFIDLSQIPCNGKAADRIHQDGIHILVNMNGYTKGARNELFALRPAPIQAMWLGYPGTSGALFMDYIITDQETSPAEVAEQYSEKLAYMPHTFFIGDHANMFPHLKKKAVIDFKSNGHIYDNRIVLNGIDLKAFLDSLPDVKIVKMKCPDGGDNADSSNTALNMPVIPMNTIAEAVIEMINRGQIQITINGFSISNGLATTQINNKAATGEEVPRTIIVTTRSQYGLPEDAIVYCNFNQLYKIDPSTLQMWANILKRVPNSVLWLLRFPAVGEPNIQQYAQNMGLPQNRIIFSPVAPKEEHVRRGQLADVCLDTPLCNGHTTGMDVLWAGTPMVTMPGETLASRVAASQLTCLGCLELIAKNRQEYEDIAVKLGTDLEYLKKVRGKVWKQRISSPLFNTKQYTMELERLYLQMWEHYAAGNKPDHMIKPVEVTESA

[1] = molecular target: T2, O-GlcNAc transferase (OGT), endogenous (human (endogenous in HeLa)) (UniProt O15294); assay: co-IP; endogenous IP with anti-PINK1 or anti-OGT antibody on protein A/G magnetic beads; YFP-Parkin expressing HeLa cells treated with or without 1 μM O/A for 1 and 2 h; IP lysis buffer; western blotting
T2 sequence: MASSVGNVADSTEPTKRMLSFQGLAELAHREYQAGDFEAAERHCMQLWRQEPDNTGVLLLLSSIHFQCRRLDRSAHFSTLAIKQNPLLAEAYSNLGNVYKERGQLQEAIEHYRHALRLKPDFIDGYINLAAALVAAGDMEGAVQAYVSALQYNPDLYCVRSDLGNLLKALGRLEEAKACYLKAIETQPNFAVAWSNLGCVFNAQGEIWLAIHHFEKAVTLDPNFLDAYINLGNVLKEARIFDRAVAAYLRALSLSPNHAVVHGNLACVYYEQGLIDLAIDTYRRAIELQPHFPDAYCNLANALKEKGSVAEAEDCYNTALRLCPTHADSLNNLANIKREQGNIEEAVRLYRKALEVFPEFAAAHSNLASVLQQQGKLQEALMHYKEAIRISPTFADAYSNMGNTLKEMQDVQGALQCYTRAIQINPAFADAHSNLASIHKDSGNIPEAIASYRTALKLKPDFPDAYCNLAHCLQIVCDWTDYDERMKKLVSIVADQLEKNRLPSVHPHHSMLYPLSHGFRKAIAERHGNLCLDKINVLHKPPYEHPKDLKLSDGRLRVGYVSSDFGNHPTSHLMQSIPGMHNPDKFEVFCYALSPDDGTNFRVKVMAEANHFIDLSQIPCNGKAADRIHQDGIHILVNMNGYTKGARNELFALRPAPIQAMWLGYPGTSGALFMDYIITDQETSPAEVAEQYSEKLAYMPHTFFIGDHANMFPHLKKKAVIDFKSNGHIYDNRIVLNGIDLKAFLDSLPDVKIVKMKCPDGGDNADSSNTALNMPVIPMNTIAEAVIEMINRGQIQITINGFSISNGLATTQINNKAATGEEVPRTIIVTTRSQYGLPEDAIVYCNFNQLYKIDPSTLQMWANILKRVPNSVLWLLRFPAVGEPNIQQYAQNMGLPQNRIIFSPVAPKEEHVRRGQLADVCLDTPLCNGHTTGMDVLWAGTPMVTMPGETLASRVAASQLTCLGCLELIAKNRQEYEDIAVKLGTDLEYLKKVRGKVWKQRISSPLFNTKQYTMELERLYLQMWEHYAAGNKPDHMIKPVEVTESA

[2] = molecular target: PTEN-induced kinase 1 (PINK1), endogenous (human (endogenous in HeLa)) (UniProt Q9BXM7); assay: as above
PINK1-MYC = PINK1-MYC (UniProt Q9BXM7); assay: co-IP; HEK293T cells transfected with OGT-FLAG and/or PINK1-MYC for 48 h, lysed with IP lysis buffer; MYC IP or FLAG IP on myc/flag magnetic beads for 4 h; western blotting

Molecule: PTEN-induced kinase 1 (PINK1), endogenous (from UniProt Q9BXM7 78-581)
binding [1]: binds

B1: O-GlcNAc transferase (OGT), endogenous (enzyme, UniProt O15294 1-1046)
chain: MASSVGNVADSTEPTKRMLSFQGLAELAHREYQAGDFEAAERHCMQLWRQEPDNTGVLLLLSSIHFQCRRLDRSAHFSTLAIKQNPLLAEAYSNLGNVYKERGQLQEAIEHYRHALRLKPDFIDGYINLAAALVAAGDMEGAVQAYVSALQYNPDLYCVRSDLGNLLKALGRLEEAKACYLKAIETQPNFAVAWSNLGCVFNAQGEIWLAIHHFEKAVTLDPNFLDAYINLGNVLKEARIFDRAVAAYLRALSLSPNHAVVHGNLACVYYEQGLIDLAIDTYRRAIELQPHFPDAYCNLANALKEKGSVAEAEDCYNTALRLCPTHADSLNNLANIKREQGNIEEAVRLYRKALEVFPEFAAAHSNLASVLQQQGKLQEALMHYKEAIRISPTFADAYSNMGNTLKEMQDVQGALQCYTRAIQINPAFADAHSNLASIHKDSGNIPEAIASYRTALKLKPDFPDAYCNLAHCLQIVCDWTDYDERMKKLVSIVADQLEKNRLPSVHPHHSMLYPLSHGFRKAIAERHGNLCLDKINVLHKPPYEHPKDLKLSDGRLRVGYVSSDFGNHPTSHLMQSIPGMHNPDKFEVFCYALSPDDGTNFRVKVMAEANHFIDLSQIPCNGKAADRIHQDGIHILVNMNGYTKGARNELFALRPAPIQAMWLGYPGTSGALFMDYIITDQETSPAEVAEQYSEKLAYMPHTFFIGDHANMFPHLKKKAVIDFKSNGHIYDNRIVLNGIDLKAFLDSLPDVKIVKMKCPDGGDNADSSNTALNMPVIPMNTIAEAVIEMINRGQIQITINGFSISNGLATTQINNKAATGEEVPRTIIVTTRSQYGLPEDAIVYCNFNQLYKIDPSTLQMWANILKRVPNSVLWLLRFPAVGEPNIQQYAQNMGLPQNRIIFSPVAPKEEHVRRGQLADVCLDTPLCNGHTTGMDVLWAGTPMVTMPGETLASRVAASQLTCLGCLELIAKNRQEYEDIAVKLGTDLEYLKKVRGKVWKQRISSPLFNTKQYTMELERLYLQMWEHYAAGNKPDHMIKPVEVTESA
binding [2]: binds

Further lines, results first:

binding (OGT-FLAG): binds
Molecule: PINK1-MYC (from UniProt Q9BXM7 78-581)

binding (PINK1-MYC): binds
B2: OGT-FLAG (enzyme, UniProt O15294 1-1046)
chain: MASSVGNVADSTEPTKRMLSFQGLAELAHREYQAGDFEAAERHCMQLWRQEPDNTGVLLLLSSIHFQCRRLDRSAHFSTLAIKQNPLLAEAYSNLGNVYKERGQLQEAIEHYRHALRLKPDFIDGYINLAAALVAAGDMEGAVQAYVSALQYNPDLYCVRSDLGNLLKALGRLEEAKACYLKAIETQPNFAVAWSNLGCVFNAQGEIWLAIHHFEKAVTLDPNFLDAYINLGNVLKEARIFDRAVAAYLRALSLSPNHAVVHGNLACVYYEQGLIDLAIDTYRRAIELQPHFPDAYCNLANALKEKGSVAEAEDCYNTALRLCPTHADSLNNLANIKREQGNIEEAVRLYRKALEVFPEFAAAHSNLASVLQQQGKLQEALMHYKEAIRISPTFADAYSNMGNTLKEMQDVQGALQCYTRAIQINPAFADAHSNLASIHKDSGNIPEAIASYRTALKLKPDFPDAYCNLAHCLQIVCDWTDYDERMKKLVSIVADQLEKNRLPSVHPHHSMLYPLSHGFRKAIAERHGNLCLDKINVLHKPPYEHPKDLKLSDGRLRVGYVSSDFGNHPTSHLMQSIPGMHNPDKFEVFCYALSPDDGTNFRVKVMAEANHFIDLSQIPCNGKAADRIHQDGIHILVNMNGYTKGARNELFALRPAPIQAMWLGYPGTSGALFMDYIITDQETSPAEVAEQYSEKLAYMPHTFFIGDHANMFPHLKKKAVIDFKSNGHIYDNRIVLNGIDLKAFLDSLPDVKIVKMKCPDGGDNADSSNTALNMPVIPMNTIAEAVIEMINRGQIQITINGFSISNGLATTQINNKAATGEEVPRTIIVTTRSQYGLPEDAIVYCNFNQLYKIDPSTLQMWANILKRVPNSVLWLLRFPAVGEPNIQQYAQNMGLPQNRIIFSPVAPKEEHVRRGQLADVCLDTPLCNGHTTGMDVLWAGTPMVTMPGETLASRVAASQLTCLGCLELIAKNRQEYEDIAVKLGTDLEYLKKVRGKVWKQRISSPLFNTKQYTMELERLYLQMWEHYAAGNKPDHMIKPVEVTESA
